Laboratory results: US9822126B1, “Substituted 1,2,3-triazol-1-yl-methyl-2,3-dihydro-2-methyl-6-nitroimidazo[2,1-b]oxazoles as anti-mycobacterial agents and a process for the preparation thereof” (priority 2014, dated 2017)
Some entries share one result that the patent states for a list of compounds.

Test system: macrophage J774 cells line
Experiment: Cytotoxicity assay (MTT) in macrophage J774 cells
Assay type: cell-based
Details: macrophage J774, 24 hrs incubation, tested at 40 μg/ml
Procedure: The study was carried out using macrophage J774 cells line (ATCC-USA). Cells were grown in Rosewell Park Memorial Institute Medium (RPMI) containing 10% fetal calf serum (FCS) and supplemented with 75 mg/liter penicillin, 100 mg/liter streptomycin, 110 mg/liter Sodium pyruvate, 2.38 gm/liter HEPES, 0.05 mM 2 β-mercaptoethanol, and 2 gm/liter NaHCO3, in a humidified atmosphere in 5% CO2 at 37° C., and were sub-cultured at 1:4 ratio once a week.
Cells were plated at a density of 3×10^4 cells/cm^2 and maintained in culture medium for 12 hours. Cells were seeded onto 96-well flat bottom plates and FCS was reduced to 5% for the experiment. Stock solutions of compounds 9 to 37 were prepared fresh to avoid oxidation. Cells were incubated with the compounds (40 μg/ml) for 24 hrs.
After the completion of incubation, the medium was removed and cell viability was evaluated by assaying for the ability of functional mitochondria to catalyze the reduction of 3-(4,5-dimethylthiazol-2-yl)-2,5-diphenyltetrazolium bromide (MTT) to form formazan salt by mitochondrial dehydrogenases, and determined by Elisa reader at 450 nm (Multiskan Spectrum; Thermo Electron Corporation, USA). Percentage cytotoxicity was calculated with respect to the untreated cells.

C[C@]1(Cn2cc(COc3cccc(Cl)c3)nn2)Cn2cc([N+](=O)[O-])nc2O1 [I10, (R)-2-((4-((3-Chlorophenoxy)methyl)-1H-1,2,3-triazol-1-yl)methyl)-2-methyl-6-nitro-2,3-dihydroimidazo[2,1-b]oxazole]
Cytotoxicity (listed as Compound I10): > 40 µg/mL

Cc1cccc(OCc2cn(C[C@@]3(C)Cn4cc([N+](=O)[O-])nc4O3)nn2)c1 [I13, (R)-2-Methyl-6-nitro-2-((4-((m-tolyloxy)methyl)-1H-1,2,3-triazol-1-yl)methyl)-2,3-dihydroimidazo[2,1-b]oxazole]
Cytotoxicity (listed as Compound I13): > 40 µg/mL

Cc1ccccc1OCc1cn(C[C@@]2(C)Cn3cc([N+](=O)[O-])nc3O2)nn1 [I14, (R)-2-Methyl-6-nitro-2-((4-((o-tolyloxy)methyl)-1H-1,2,3-triazol-1-yl)methyl)-2,3-dihydroimidazo[2,1-b]oxazole]
Cytotoxicity (listed as Compound I14): > 40 µg/mL

CC(C)c1ccc(OCc2cn(C[C@@]3(C)Cn4cc([N+](=O)[O-])nc4O3)nn2)cc1 [I18, (R)-2-((4-((4-Isopropylphenoxy)methyl)-1H-1,2,3-triazol-1-yl)methyl)-2-methyl-6-nitro-2,3-dihydroimidazo[2,1-b]oxazole]
Cytotoxicity (listed as Compound I18): > 40 µg/mL
